Results from the supplement of paper PMC3334620.
The full ranking holds about 33,000 sequences; the median of “E-score (-0.5 to 0.5)” is about -0.015, and the highest 2% start at about 0.3. The list shows a part of the results.

Each sequence was assayed against T1, Abf1 (UniProt P14164) (assay: PBM E-score (8-mer binding enrichment) (E-score (-0.5 to 0.5)); higher = stronger / more preferred TF binding). Settings: protein concentration: 200 nM; construct: GST-full length.
T1 sequence: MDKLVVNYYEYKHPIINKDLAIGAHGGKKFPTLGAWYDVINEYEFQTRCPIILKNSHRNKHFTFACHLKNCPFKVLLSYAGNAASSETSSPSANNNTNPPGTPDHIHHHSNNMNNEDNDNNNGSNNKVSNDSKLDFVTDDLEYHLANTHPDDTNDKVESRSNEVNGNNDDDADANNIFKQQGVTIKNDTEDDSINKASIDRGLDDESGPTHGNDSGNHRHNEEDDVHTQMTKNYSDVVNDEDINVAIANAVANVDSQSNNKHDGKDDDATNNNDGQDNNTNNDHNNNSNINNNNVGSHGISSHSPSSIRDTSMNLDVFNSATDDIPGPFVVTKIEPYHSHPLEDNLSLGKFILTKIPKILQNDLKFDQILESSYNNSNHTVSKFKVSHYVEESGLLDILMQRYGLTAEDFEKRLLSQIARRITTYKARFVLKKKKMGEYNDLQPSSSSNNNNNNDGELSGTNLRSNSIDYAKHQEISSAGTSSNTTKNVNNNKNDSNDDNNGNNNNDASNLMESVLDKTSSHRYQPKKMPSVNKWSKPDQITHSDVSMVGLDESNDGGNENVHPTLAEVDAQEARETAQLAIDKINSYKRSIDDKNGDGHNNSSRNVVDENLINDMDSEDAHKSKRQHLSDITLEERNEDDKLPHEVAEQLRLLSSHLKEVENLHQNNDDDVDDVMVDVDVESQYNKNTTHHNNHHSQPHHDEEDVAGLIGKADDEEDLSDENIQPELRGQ
Procedure, shortened: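 Yeast transcription factors carrying a GST tag, as full-length proteins or DNA-binding domains, were produced by PURExpress in vitro transcription/translation. About 100-200 nM protein was applied to universal all-10-mer Agilent arrays, double-stranded by primer extension on fresh or once-stripped slides. Bound protein was detected with fluorescent anti-GST, and scans were normalised with masliner. The Universal PBM Analysis Suite gave each ungapped eight-base word, pooled with its reverse complement, an E-score, a modified Wilcoxon-Mann-Whitney statistic.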

Row | Sequence | PBM E-score
1 | AAGTGTTG | 0.0736
2 | CCCCTCCG | -0.197
3 | ACAGCGAA | -0.0537
4 | TGAGAGCA | -0.0853
5 | ATCATTAA | 0.307
6 | CCAGTTGC | -0.18
7 | TGCCCCCA | -0.238
8 | AGGCGCCC | -0.0323
9 | CGACAGTA | 0.139
10 | AGTACATC | 0.176
11 | ACAAAGTA | 0.146
12 | ATATTGCC | 0.0422
13 | AACACACC | -0.119
14 | CGGCTGGA | -0.217
15 | ACGCCCAA | -0.012
16 | AGTGAATA | -0.0113
17 | GGCGCAAC | 0.0368
18 | AAAGTAAC | 0.0929
19 | ACCTCTAG | 0.0246
20 | AGTAATAC | 0.0597
21 | ACCAGTGC | 0.00776
22 | AAGTGAGT | 0.0964
23 | CGGTAAGA | -0.0162
24 | CCCACGGG | -0.0425
25 | GCTGTCAA | 0.00671

Row | Sequence | PBM E-score
26 | AAGGAAGG | -0.113
27 | TCAGAACA | 0.0451
28 | CACTAGTC | -0.0679
29 | GTGCACTA | 0.139
30 | AACTGTGC | 0.106
31 | CAAGCTCC | -0.31
32 | AATTCCCT | -0.0703
33 | GGCACCAC | -0.0738
34 | CATTGCGC | -0.00712
35 | GCGAGTAA | 0.0468
36 | ATAGACCA | -0.0989
37 | TCCCCAGA | -0.206
38 | ATCACCGA | 0.23
39 | TAAGTATA | 0.253
40 | AATGCAAT | -0.0812
41 | GGTTGTTA | 0.0335
42 | CGAACCAG | -0.0817
43 | CCCTGTCA | -0.0302
44 | ATCGAGCG | 0.0604
45 | TCTACCAA | -0.0268
46 | ACCCTGGA | -0.238
47 | AGGGCAGA | -0.337
48 | AAAATTCA | 0.253
49 | CAAAGGTC | -0.119
50 | AGTACCCG | 0.0797

Part of the list above, as tab-separated lines:
Row	Sequence	PBM E-score
6	CCAGTTGC	-0.18
7	TGCCCCCA	-0.238
8	AGGCGCCC	-0.0323
9	CGACAGTA	0.139

Further results follow:

Row | Sequence | PBM E-score
51 | ACGGTTGA | 0.171
52 | ACAGACCT | -0.0877
53 | GATCTACA | 0.169
54 | AGTCTTCG | 0.105
55 | GGGAACGA | -0.0829
56 | AATCGGAT | 0.0329
57 | CCAGTCGA | 0.024
58 | CAGTGGGA | -0.194
59 | GGGTTGGA | -0.202
60 | CATCAAAC | 0.0039
61 | AAATAGTG | 0.24
62 | CTTACGGA | 0.121
63 | CGGAGAAG | -0.205
64 | CCCACAAA | 0.0336
65 | GACTGGAA | -0.133
66 | AGTAAGAT | 0.0847
67 | CTCCTGGC | -0.218
68 | AACTCTCA | 0.00063
69 | CGCGTTGA | 0.0564
70 | CCGAAGAC | -0.107
71 | GGAAGCCC | -0.113
72 | ATCCAGGC | -0.092
73 | CTCTAGCC | -0.0808
74 | AACCCGAG | -0.0688
75 | CTCGCCGC | -0.185

Some of the entries above in a different format.
GGGTTGGA
  PBM E-score: -0.202
CATCAAAC
  PBM E-score: 0.0039
AAATAGTG
  PBM E-score: 0.24
CTTACGGA
  PBM E-score: 0.121

The listing continues.

Row | Sequence | PBM E-score
76 | CGTAGAGA | 0.147
77 | GCCCTCAA | -0.163
78 | CTGTCGTA | 0.251
79 | ACCGGAGA | -0.04
80 | GGTCCCTA | -0.132
81 | CGATATAC | 0.204
82 | ATCCACGC | 0.0014
83 | GTTTTACA | -0.0536
84 | CTCTATTC | -0.221
85 | GTAATGAC | 0.206
86 | CTTCTCAA | -0.0242
87 | ACGTGCTA | 0.0443
88 | CACTGCGA | 0.00219
89 | CAATTCGC | 0.0755
90 | GTAAGAGA | -0.0167
91 | CTGGGTTC | -0.0606
92 | AGGAGACA | 0.0313
93 | ACCTTTAT | -0.15
94 | GCGTACCC | -0.305
95 | GTAGGTTA | -0.0271
96 | GTCTAAGA | 0.00869
97 | GGCGGAGA | -0.00874
98 | GCATCGGC | -0.17
99 | GGCCCCGA | 0.0226
100 | GAACCAGA | -0.2

Row | Sequence | PBM E-score
101 | AGATAGAG | -0.0524
102 | CAAGTTCC | -0.155
103 | AAGTAGCG | 0.11
104 | CGGTCAAG | -0.0987
105 | ACTGTAAC | 0.00878
106 | ACGCATCA | 0.231
107 | CAGTTGAA | 0.0382
108 | CGGGTGCC | -0.0683
109 | ATGGCACC | -0.137
110 | AGTTTTAC | -0.175
111 | CTTGACCA | -0.131
112 | CGCGTTGC | 0.0553
113 | ACGTGGTG | -0.0809
114 | GGGGGTCA | -0.203
115 | TGTTTGAA | -0.101
116 | AGAATTCG | 0.0655
117 | GACGCGTC | 0.12
118 | CGGCTAAA | -0.0879
119 | AGGATGCG | 0.179
120 | ACTAGAAG | -0.0705
121 | GTTCCGTA | 0.236
122 | AACATGCG | 0.0369
123 | CCTAACGA | 0.235
124 | AAAAAGAT | 0.0794
125 | AGGAAGTA | -0.108

Row | Sequence | PBM E-score
126 | CTCCCCGC | -0.154
127 | AAAAGGGA | -0.0917
128 | GTATACCA | -0.122
129 | AAACACTA | 0.0573
130 | AAACTTGT | 0.0507
131 | CGATCTCA | 0.0718
132 | GGGCCGAA | -0.289
133 | ATCCGCAT | 0.0353
134 | CTAGAACC | -0.0756
135 | ACATTGCA | -0.0641
136 | ACGTTCTG | 0.152
137 | CATGAAGC | -0.103
138 | AACGCCCG | -0.116
139 | CCCCGAGG | -0.183
140 | CGGTTAGA | 0.0396
141 | AGTCAAGG | -0.144
142 | ACACTTAC | 0.0115
143 | GCTCGAAC | 0.0236
144 | ACGCAATA | 0.0632
145 | GATGGTCC | -0.136
146 | CCAGGACA | -0.139
147 | TATGTTGA | -0.097
148 | GACGTCCA | 0.145
149 | GCGAGGAA | -0.0784
150 | GGCTCCAC | -0.27

Row | Sequence | PBM E-score
151 | ACTCACAC | 0.0385
152 | AACAGAGG | -0.13
153 | GTCCAAAC | -0.0807
154 | CGTACGTC | 0.359
155 | AAATAGAC | -0.0254
156 | GTACCATA | 0.0556
157 | AGAGGTTG | -0.0169
158 | CCGTCCGC | -0.147
159 | GATGAGAA | 0.155
160 | AAGCAACA | -0.0411
161 | CAGGGTGC | -0.376
162 | ATAAAGCG | 0.181
163 | AGTTCGCG | -0.0641
164 | GCAGGGAA | -0.0937
165 | CTTGTAAA | -0.00179
166 | CGCCAACA | -0.23
167 | CTTCTACA | -0.117
168 | GGGGAGGA | -0.263
169 | AAAACCGT | 0.0542
170 | AATCGGAA | 0.0767
171 | AGCTTCCT | 0.00875
172 | ATGGTTGG | -0.169

From entry 154 as far as 157, as listed above:
Row | Sequence | PBM E-score
154 | CGTACGTC | 0.359
155 | AAATAGAC | -0.0254
156 | GTACCATA | 0.0556
157 | AGAGGTTG | -0.0169
